Test results taken from PubChem BioAssay AID504467 (National Center for Advancing Translational Sciences (NCATS), 2011).
In all, about 330,000 compounds went through this assay and about 7,700 (2.3%) were called active. The shares of active, inactive and inconclusive entries below differ from those in the screen. Calls come from the whole dose curve; as a rule, active = well fitted inhibition curve with a large enough effect; inconclusive = small, poorly fitted or top-dose-only effect, or effect the other way; inactive = flat fitted curve, though single readings scatter. Potencies of inconclusive entries are doubtful fits and often do not repeat.

test: qHTS screen for small molecules that inhibit ELG1-dependent DNA repair in human embryonic kidney (HEK293T) cells expressing luciferase-tagged ELG1; conditions: HEK293T ELG1-luciferase reporter, luminescence, 16 h, DNA damage induced by 5-fluorouridine; activity change, negative = inhibition: at 46.1 µM (top of the series); note: nearly all actives have a fitted effect of over 55% in size
How it was run: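 Reporter activity after DNA damage by 5-fluorouridine is monitored. Compound-treated cells incubate 16 hr at 37 °C, then ONE-Glo is added for 30 min before luminescence reading.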
% is set by controls: 0 for no effect and ±100 for the full control effect; potency is the fitted concentration of half-maximal effect.

Compound | Potency | activity change, negative = inhibition
Cc1ccc(C(=O)COc2ccccc2N2C(=O)c3ccccc3C2=O)cc1 | inconclusive: 13 µM [activator, partial curve, poor fit] | –
O=C(Nc1nnc(-c2ccccc2Cl)o1)c1ccc(S(=O)(=O)N2CCCCCC2)cc1 | active: 1 µM | –
Cc1nc(SCc2nc3c(F)cccc3[nH]2)c2oc3ccccc3c2n1 | inconclusive: 23.1 µM [inhibitor, single point] | –
CCC(=O)c1ccc(OCC(=O)N2CCN(S(=O)(=O)c3ccc(Cl)s3)CC2)cc1 | – | inactive: -10.7%
O=C(CSc1ccc2c(c1)OCCO2)Nc1ccc(Br)cc1 | – | inactive: -7.54%
O=C(CSc1n[nH]c(-c2cccnc2)n1)Nc1ccnc2ccccc12 | inconclusive: 23.1 µM [inhibitor, partial curve] | –
Cn1c(=NC(=O)COc2ccccc2)sc2cc(F)cc(F)c21 | inconclusive: 0.651 µM [activator, partial curve, poor fit] | –
Cc1onc(-c2ccccc2)c1C(=O)N/N=C/c1ccccc1OC(C)C | – | inactive: 3.24%
NC(=O)c1ccc[n+](CC(=O)OCCC23CC4CC(CC(C4)C2)C3)c1 | – | inactive: 3.43%
CCCc1cc(C(=O)Nc2cnn(Cc3ccc(F)cc3)c2)no1 | inconclusive: 14.6 µM [inhibitor, single point] | –
CCN1CCN(c2nc(N)c([N+](=O)[O-])c(Nc3ccc(C)cc3)n2)CC1 | inconclusive: 32.6 µM [inhibitor, single point] | –
Cc1ccc(C(=O)c2ncc[nH]2)cc1 | inconclusive: 14.1 µM [activator, partial curve, poor fit] | –
CC(C)C(=O)N1CCN(c2ccc(NC(=S)NC(=O)c3cc4ccccc4o3)cc2)CC1 | inconclusive: 14.6 µM [activator, partial curve] | –
CN(C(=O)c1ccc(NC(=O)C2CCCN(C(=O)OC(C)(C)C)C2)cc1)C1CCC1 (stereo not given) | inconclusive: 18.3 µM [inhibitor, partial curve, poor fit] | –
O=C(N/N=C/c1ccc[nH]1)c1ccccc1O | inconclusive: 18.3 µM [activator, partial curve] | –
CCO[C@H]1OC(C(=O)N2CCOCC2)=C[C@@H](c2ccccc2)[C@@H]1CCCO | inconclusive: 14.6 µM [activator, partial curve, poor fit] | –
COc1ccccc1NS(=O)(=O)c1ccc(C(=O)Nc2ncccc2O)cc1 | inconclusive: 29.1 µM [activator, partial curve, poor fit] | –
COc1ccc(C2c3ccc(O)cc3Oc3ncn(Cc4ccco4)c(=N)c32)cc1 (stereo not given) | – | inactive: -18.4%
Nc1nnnn1/N=C\c1ccc(Cl)c([N+](=O)[O-])c1 | inconclusive: 29.1 µM [activator, partial curve, poor fit] | –
CCCCOc1ccc(/C=N/NC(=O)c2nnn(-c3nonc3N)c2C)cc1 | – | inactive: 6.73%
C[C@H]1CN([C@@H](C)CO)C(=O)c2cccc(NC(=O)Nc3ccc(F)cc3)c2O[C@@H]1CN(C)Cc1ccc(C(=O)O)cc1 | inconclusive: 29.1 µM [activator, single point] | –
CCc1nnc(NC(=O)COc2ccccc2[N+](=O)[O-])s1 | inconclusive: 18.3 µM [activator, partial curve] | –
COc1ccc(CN2CCN(C(=O)CC(C)C)CC2)cc1 | – | inactive: -16%
COc1cccc(CNCCc2c[nH]c3ccccc23)c1OCc1ccc(F)cc1 | – | inactive: -17.6%

3 entries from above, ordered by molar mass, falling:
Compound | Potency | activity change, negative = inhibition
CN(C(=O)c1ccc(NC(=O)C2CCCN(C(=O)OC(C)(C)C)C2)cc1)C1CCC1 (stereo not given) | inconclusive: 18.3 µM [inhibitor, partial curve, poor fit] | –
O=C(CSc1n[nH]c(-c2cccnc2)n1)Nc1ccnc2ccccc12 | inconclusive: 23.1 µM [inhibitor, partial curve] | –
Cc1ccc(C(=O)c2ncc[nH]2)cc1 | inconclusive: 14.1 µM [activator, partial curve, poor fit] | –

Later entries

Compound | Potency | activity change, negative = inhibition
CC(=O)Nc1c2c(nn1-c1cccc(Cl)c1)CS(=O)C2 (stereo not given) | inconclusive: 18.4 µM [activator, single point] | –
O=C(COC(=O)/C=C/C(=O)N1CCN(c2ccccc2)CC1)NC(c1ccccc1)c1ccccc1 | – | inactive: -13.5%
CC(=O)Nc1ccc(C=NNc2ccc(S(=O)(=O)Nc3ccccc3C(=O)O)cc2[N+](=O)[O-])cc1 | – | inactive: 14.8%
Cc1cccc(NC(=O)CN(C)S(=O)(=O)c2ccc3c(c2)n(C)c(=O)c(=O)n3C)c1C | – | inactive: -0.512%
Cc1nn(-c2ccccc2)c2[nH]c(=O)c(CNc3ccc(N4CCOCC4)cc3)cc12 | inconclusive: 8.2 µM [inhibitor, partial curve, poor fit] | –
CC1CCN(Cc2c(C(=O)N/N=C/c3ccccc3O)nnn2-c2nonc2N)CC1 | inconclusive: 2.59 µM [inhibitor, full curve] | –
O=C(Cn1cnc2ccccc2c1=O)Nc1ccc2c(c1)OCCO2 | inconclusive: 8.91 µM [activator, partial curve] | –
COc1ccc(-c2noc(CCC(=O)N3CCN(c4ccc(Cl)cc4)CC3)n2)cc1 | – | inactive: -0.397%
CCCCCC(=O)NNC(=S)NC(C)=O | – | inactive: -2.38%
CCc1ccc(-c2csc(NC(=O)COC(=O)CCc3nc4ccccc4s3)n2)cc1 | inconclusive: 9.2 µM [activator, partial curve] | –
O=C(COC(=O)c1ccc(NS(=O)(=O)c2cccs2)cc1O)NC1CCCCC1 | inconclusive: 29.1 µM [activator, single point] | –
CCOC(=O)N1CCN(C(=O)CCCn2c(=S)[nH]c3ccsc3c2=O)CC1 | – | inactive: -12.1%
Cc1cc(C)c2c(n1)nn1c(NCCCN(C)C)cc(C)nc21 | – | inactive: 20.8%
O=C(Nc1cccc(-n2cnnn2)c1)c1ccco1 | inconclusive: 6.51 µM [activator, single point] | –
O=C(c1cc2cc(Cl)ccc2oc1=O)N1CCOCC1 | inconclusive: 29.1 µM [activator, single point] | –
COc1ccc(OC)c(NC(=O)COC(=O)CN2C(=O)NC3(CCCC3)C2=O)c1 | – | inactive: 18.8%
CCOc1ccccc1NC(=O)CSc1nc2ccccc2c(=O)n1CC1CCCO1 (stereo not given) | inconclusive: 16.4 µM [inhibitor, partial curve] | –
O=C(NCCC1=CCCCC1)NC1CCCCC1 | inconclusive: 4.61 µM [activator, partial curve] | –
CCOC(=O)c1c(C)nn(-c2ccc(NC(=O)CSCC(=O)O)cc2)c1C | – | inactive: 0.914%
COc1ccc(C(=O)NCCCN2CCCC2=O)cc1 | inconclusive: 29.1 µM [activator, single point] | –
Cc1cc(C)c(C)c(S(=O)(=O)NCc2ccncc2)c1C | active: 2.91 µM | –
CC1CCN(C(=O)Cn2c(=O)n(CCc3ccccc3)c(=O)c3ccccc32)CC1 | inconclusive: 10.3 µM [inhibitor, partial curve] | –
CCS(=O)(=O)c1ccc(-c2cccc(NC(=O)COc3ccc(Cl)cc3)c2)nn1 | – | inactive: 20%
CCC1(C)C(Nc2c(C)cccc2C)=NC(=S)N1c1ccc(NC(C)=O)cc1 (stereo not given) | – | inactive: 5.6%

Compound | Potency | activity change, negative = inhibition
C#CCOCCOCCOCCNc1nc(N2CCN(C(=O)[C@H](CCCCN)n3cc(C(N)CO)nn3)CC2)nc(N2CCN(C(=O)[C@H](CCC(=O)O)n3cc(C(N)CC(C)C)nn3)CC2)n1 (stereo not given in full) | inconclusive: 29.1 µM [activator, partial curve, poor fit] | –
O=c1c2ccccc2nnn1CSc1nnc(-c2cccc(S(=O)(=O)N3CCCCC3)c2)o1 | inconclusive: 13 µM [inhibitor, partial curve] | –
O=C(CCNC(=O)c1ccccc1Cl)NN=Cc1ccco1 | – | inactive: 2.44%
CCOC(=O)c1ccc(CNC(=O)CSc2nnnn2-c2ccc(Cl)cc2)o1 | inconclusive: 8.2 µM [inhibitor, partial curve, poor fit] | –
COc1cc(/C=C2/SC(=NCc3ccccc3)N(Cc3ccccc3)C2=O)ccc1O | – | inactive: -18.8%
COCc1cc(=O)[nH]c(/N=C(\N)Nc2ccc(C)cc2C)n1 | – | inactive: 1.38%
CC(NC(=O)/C(C#N)=C1\N=C(NC(=O)c2cccs2)c2ccccc21)c1ccccc1 (stereo not given) | inconclusive: 5.8 µM [inhibitor, partial curve, poor fit] | –
O=C1CCC(C(=O)N2CCSCC2)CN1Cc1ccc(Cl)cc1 (stereo not given) | inconclusive: 16.4 µM [activator, partial curve, poor fit] | –
CSCC[C@H](NC(=O)[C@H](Cc1ccccc1)n1c(=O)[nH]c2ccccc2c1=O)C(=O)NCC1CCC(C(=O)O)CC1 (stereo not given in full) | – | inactive: 20%
Cn1c(=O)[nH]c(=O)c2c1nc(Br)n2CCCc1ccccc1 | – | inactive: -12.6%
CCNc1nc(NCC)nc(N(C#N)C(C)C)n1 | inconclusive: 32.6 µM [activator, partial curve, poor fit] | –
CC(=O)c1c(C)nn(CC(O)Cn2c3c(c4cc(C)ccc42)CCCC3=O)c1C (stereo not given) | inconclusive: 23.1 µM [inhibitor, single point] | –
CCOc1ccc(C(=O)Nc2nnc(C(C)C)s2)cc1OCC | inconclusive: 14.6 µM [activator, single point] | –
O=C(O)Cc1ccc2oc(-c3ccccn3)nc2c1 | inconclusive: 29.1 µM [activator, single point] | –
COc1ccc(CNC(=O)NC2CCCCC2)cc1 | inconclusive: 20.6 µM [activator, partial curve] | –
N=C1/C(=C\c2ccc(-c3ccc(C(=O)O)cc3)o2)C(=O)N=C2SC=C(c3ccccc3)N12 | – | inactive: 3.68%
Fc1nc(F)c(F)c(NCCCNc2c(F)c(F)nc(F)c2F)c1F | inconclusive: 16.4 µM [inhibitor, single point] | –
O=C(NC1=C(NC2CCS(=O)(=O)C2)C(=O)c2ccccc2C1=O)c1ccccc1 (stereo not given) | inconclusive: 11.6 µM [inhibitor, partial curve] | –
Cc1cc(NC(=O)CN2CCc3ccccc3C2)nc2c1c(=O)oc1ccccc12 | – | inactive: -12.3%
CC(C)Nc1nc(Oc2ccc(Cl)cc2)cc(C(F)(F)F)n1 | – | inactive: -0.0318%
CCCC1(c2ccccc2)NC(=O)NC1=O (stereo not given) | inconclusive: 0.291 µM [activator, full curve, poor fit] | –
COc1ccc(S(=O)(=O)N2CCOCC2)cc1NC(=O)CSc1nnc(NC2CC2)s1 | – | inactive: 12.9%
